Test results as given in paper PMC7707837.
Results are given in words; binding and its absence hold for the method and conditions named. Binding seen in cells or lysates may run through a third protein. Some binding calls cover weakened binding; strength is not graded here. Sequences can lack the tags named with a protein.

Sequences of proteins named here, by UniProt entry; tags and fusion partners are left off.
UniProt Q96AP0: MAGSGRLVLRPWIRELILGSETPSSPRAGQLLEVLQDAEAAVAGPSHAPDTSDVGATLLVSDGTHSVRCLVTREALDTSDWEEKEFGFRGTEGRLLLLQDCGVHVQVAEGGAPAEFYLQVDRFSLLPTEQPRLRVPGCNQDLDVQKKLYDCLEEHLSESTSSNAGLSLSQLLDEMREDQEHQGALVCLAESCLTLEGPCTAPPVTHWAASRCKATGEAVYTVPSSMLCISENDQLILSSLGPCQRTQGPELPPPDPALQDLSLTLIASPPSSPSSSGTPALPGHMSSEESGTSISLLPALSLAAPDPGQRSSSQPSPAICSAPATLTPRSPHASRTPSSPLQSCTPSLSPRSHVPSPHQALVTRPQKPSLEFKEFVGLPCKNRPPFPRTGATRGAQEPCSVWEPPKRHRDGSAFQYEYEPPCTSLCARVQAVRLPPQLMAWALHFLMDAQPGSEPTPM
UniProt P54274: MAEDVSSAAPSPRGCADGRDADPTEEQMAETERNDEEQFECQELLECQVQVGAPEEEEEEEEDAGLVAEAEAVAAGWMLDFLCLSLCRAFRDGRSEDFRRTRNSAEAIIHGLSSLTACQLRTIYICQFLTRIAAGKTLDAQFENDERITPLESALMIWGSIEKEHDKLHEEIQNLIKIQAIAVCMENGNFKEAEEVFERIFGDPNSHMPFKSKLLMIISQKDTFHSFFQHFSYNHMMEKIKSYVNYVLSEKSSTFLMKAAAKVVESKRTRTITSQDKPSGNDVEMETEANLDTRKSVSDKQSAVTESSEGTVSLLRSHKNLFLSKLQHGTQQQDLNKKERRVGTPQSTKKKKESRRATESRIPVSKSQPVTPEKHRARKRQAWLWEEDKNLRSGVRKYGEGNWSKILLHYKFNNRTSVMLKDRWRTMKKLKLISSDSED

Target: T1, Flag-(HA)2-tagged wild-type TIN2 (human) (UniProt Q9BSI4)
T1 sequence: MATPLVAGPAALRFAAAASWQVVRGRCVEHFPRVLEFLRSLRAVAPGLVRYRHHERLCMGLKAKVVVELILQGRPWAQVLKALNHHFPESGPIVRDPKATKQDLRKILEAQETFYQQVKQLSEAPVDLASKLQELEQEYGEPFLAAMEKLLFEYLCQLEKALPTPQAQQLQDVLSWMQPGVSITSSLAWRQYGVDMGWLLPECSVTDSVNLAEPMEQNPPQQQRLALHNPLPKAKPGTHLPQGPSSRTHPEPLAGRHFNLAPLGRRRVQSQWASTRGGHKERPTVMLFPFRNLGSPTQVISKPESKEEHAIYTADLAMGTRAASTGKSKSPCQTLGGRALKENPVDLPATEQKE
Assay: co-IP; 293T cells co-transfected with Flag-(HA)2-TIN2 versions and Myc-tagged TRF1 or TPP1; lysates diluted to 200 mM NaCl; HA-tagged TIN2 precipitated with anti-HA agarose beads, 2 hr at 4°C; blots with HA and Myc antibodies

Row | binding | Substance
1 | binds | Myc-tagged TPP1 (from UniProt Q96AP0 1-458)
2 | binds | Myc-tagged TRF1 (from UniProt P54274 1-439)
